# Paper PMC3145617
# Amino acid sequences for entries named in this document (tags omitted).
# UniProt Q24562: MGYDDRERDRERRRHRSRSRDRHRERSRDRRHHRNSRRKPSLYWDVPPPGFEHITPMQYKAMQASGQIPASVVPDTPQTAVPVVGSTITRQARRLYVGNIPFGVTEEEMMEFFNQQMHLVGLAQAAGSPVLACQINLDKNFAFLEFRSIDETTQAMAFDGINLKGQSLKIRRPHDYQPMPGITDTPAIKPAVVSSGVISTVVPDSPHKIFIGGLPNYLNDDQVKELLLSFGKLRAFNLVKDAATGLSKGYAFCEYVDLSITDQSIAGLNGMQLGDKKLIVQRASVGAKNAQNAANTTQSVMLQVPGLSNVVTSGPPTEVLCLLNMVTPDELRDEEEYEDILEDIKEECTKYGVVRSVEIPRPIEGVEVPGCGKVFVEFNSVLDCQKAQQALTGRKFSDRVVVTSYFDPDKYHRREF
# These are yes or no findings as the source states them, for the method shown. Binding seen in cells or lysates may run through a third protein. Some results given as binding are weak or reduced against the parent protein; the word gives no strength.
# T1: Scute (Drosophila melanogaster (endogenous in embryos)) (UniProt P10084)
# T1 sequence: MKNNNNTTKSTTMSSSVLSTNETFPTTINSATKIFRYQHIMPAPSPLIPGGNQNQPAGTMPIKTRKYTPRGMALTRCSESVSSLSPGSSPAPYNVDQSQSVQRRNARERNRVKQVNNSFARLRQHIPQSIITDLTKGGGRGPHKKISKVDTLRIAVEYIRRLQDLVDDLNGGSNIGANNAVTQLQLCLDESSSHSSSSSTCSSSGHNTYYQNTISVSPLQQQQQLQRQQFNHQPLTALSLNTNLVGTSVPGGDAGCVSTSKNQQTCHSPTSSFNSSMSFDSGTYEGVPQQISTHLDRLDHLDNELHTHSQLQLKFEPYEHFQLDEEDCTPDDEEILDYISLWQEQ
# T2: U1 snRNP protein U1-70K (Drosophila melanogaster (endogenous in embryos)) (UniProt P17133)
# T2 sequence: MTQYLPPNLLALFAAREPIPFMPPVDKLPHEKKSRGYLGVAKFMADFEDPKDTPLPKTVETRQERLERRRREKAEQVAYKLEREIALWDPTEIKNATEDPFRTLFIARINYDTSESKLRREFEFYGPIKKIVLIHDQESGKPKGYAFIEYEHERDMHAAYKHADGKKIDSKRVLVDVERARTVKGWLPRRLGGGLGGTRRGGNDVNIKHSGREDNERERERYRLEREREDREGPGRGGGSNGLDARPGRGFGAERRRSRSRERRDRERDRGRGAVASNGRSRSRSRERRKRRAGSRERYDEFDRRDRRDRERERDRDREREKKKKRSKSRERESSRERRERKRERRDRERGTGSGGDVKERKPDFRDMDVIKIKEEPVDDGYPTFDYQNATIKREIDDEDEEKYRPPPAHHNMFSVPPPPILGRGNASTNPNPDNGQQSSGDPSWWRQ
# T3: U2AF38 (Drosophila melanogaster (endogenous in embryos)) (UniProt Q94535)
# T3 sequence: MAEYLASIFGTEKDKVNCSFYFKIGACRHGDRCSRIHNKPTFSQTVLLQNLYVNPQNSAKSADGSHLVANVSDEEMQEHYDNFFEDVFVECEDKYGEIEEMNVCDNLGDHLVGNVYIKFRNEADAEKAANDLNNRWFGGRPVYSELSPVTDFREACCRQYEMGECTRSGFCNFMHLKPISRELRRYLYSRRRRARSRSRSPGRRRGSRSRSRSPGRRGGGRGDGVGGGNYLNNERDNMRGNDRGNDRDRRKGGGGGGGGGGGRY
# T4: Wilms' Tumor 1 Associated Protein Fl(2)d (Drosophila melanogaster (endogenous in embryos)) (UniProt Q9Y091)
# T4 sequence: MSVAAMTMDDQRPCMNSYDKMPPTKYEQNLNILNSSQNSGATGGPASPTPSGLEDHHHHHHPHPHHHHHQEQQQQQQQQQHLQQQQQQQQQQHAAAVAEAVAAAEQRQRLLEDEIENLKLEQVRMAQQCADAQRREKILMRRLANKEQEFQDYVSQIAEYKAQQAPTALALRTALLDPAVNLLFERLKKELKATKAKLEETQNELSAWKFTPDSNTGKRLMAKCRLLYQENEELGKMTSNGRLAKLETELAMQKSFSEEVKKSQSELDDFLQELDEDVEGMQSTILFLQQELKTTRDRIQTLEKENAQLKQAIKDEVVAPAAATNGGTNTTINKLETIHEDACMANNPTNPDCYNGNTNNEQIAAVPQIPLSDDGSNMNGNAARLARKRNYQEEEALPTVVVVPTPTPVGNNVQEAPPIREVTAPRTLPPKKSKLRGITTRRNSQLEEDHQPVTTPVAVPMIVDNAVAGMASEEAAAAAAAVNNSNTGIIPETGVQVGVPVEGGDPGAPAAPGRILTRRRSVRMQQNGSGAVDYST
# Tests used:
# Assay in all cases: co-IP; sonicated nuclear extract of w1 embryos (<24 hours); antibody linked protein AG beads; co-IP buffer 20 mM Hepes pH 7.5, 150 mM NaCl, 250 mM sucrose, 0.05% NP-40, 0.5% Triton-X 100, with RNAsin; 4°C overnight; blots probed with anti-eIF4E
# [1] = biological target: T1, Scute (Drosophila melanogaster (endogenous in embryos))
# [2] = biological target: T2, U1 snRNP protein U1-70K (Drosophila melanogaster (endogenous in embryos))
# [3] = biological target: T3, U2AF38 (Drosophila melanogaster (endogenous in embryos))
# [4] = biological target: U2AF50 (Drosophila melanogaster (endogenous in embryos)) (UniProt Q24562)
# [5] = biological target: T4, Wilms' Tumor 1 Associated Protein Fl(2)d (Drosophila melanogaster (endogenous in embryos))
binder,measurement,setting,value
"eukaryotic translation initiation factor eIF4E (cap binding protein) (protein, UniProt P48598 1-259) MQSDFHRMKNFANPKSMFKTSAPSTEQGRPEPPTSAAAPAEAKDVKPKEDPQETGEPAGNTATTTAPAGDDAVRTEHLYKHPLMNVWTLWYLENDRSKSWEDMQNEITSFDTVEDFWSLYNHIKPPSEIKLGSDYSLFKKNIRPMWEDAANKQGGRWVITLNKSSKTDLDNLWLDVLLCLIGEAFDHSDQICGAVINIRGKSNKISIWTADGNNEEAALEIGHKLRDALRLGRNNSLQYQLHKDTMVKQGSNVKSIYTL",binding,[1],no binding
same,binding,[2],binds
same,binding,[3],binds
same,binding,[4],binds
same,binding,[5],binds
